This test concerns the target Yes-associated protein1 (YAP1) (human (endogenous in AGS)), P46937. Description: co-IP. Particulars: remark: other sources report otherwise.

These are yes or no findings as the source states them, for the method shown. Binding seen in cells or lysates may run through a third protein. Some binding calls cover weakened binding; strength is not graded here.

B1: TEAD3, Q99594 1-435 (protein)
chain: MASNSWNASSSPGEAREDGPEGLDKGLDNDAEGVWSPDIEQSFQEALAIYPPCGRRKIILSDEGKMYGRNELIARYIKLRTGKTRTRKQVSSHIQVLARKKVREYQVGIKAMNLDQVSKDKALQSMASMSSAQIVSASVLQNKFSPPSPLPQAVFSTSSRFWSSPPLLGQQPGPSQDIKPFAQPAYPIQPPLPPTLSSYEPLAPLPSAAASVPVWQDRTIASSRLRLLEYSAFMEVQRDPDTYSKHLFVHIGQTNPAFSDPPLEAVDVRQIYDKFPEKKGGLKELYEKGPPNAFFLVKFWADLNSTIQEGPGAFYGVSSQYSSADSMTISVSTKVCSFGKQVVEKVETEYARLENGRFVYRIHRSPMCEYMINFIHKLKHLPEKYMMNSVLENFTILQVVTSRDSQETLLVIAFVFEVSTSEHGAQHHVYKLVKD
As for B1, the binding result is on record as “binds”.

The values above are taken from PMC10073623.
